From article PMC3006391

Protein sequences, listed by entry. Tags and fused reporters are not part of them.
UniProt Q07817: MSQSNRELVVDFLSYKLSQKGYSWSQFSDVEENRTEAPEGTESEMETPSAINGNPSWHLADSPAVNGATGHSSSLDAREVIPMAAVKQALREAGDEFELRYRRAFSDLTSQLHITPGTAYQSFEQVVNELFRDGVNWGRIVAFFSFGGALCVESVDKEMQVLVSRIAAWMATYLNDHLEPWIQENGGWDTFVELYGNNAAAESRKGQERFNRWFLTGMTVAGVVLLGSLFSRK

Molecular target: TAP-Bcl-xL (UniProt Q07817)
Experiment: affinity purification with mass spectrometry; Tandem Affinity Purification from CHAPS (1%) extracts of total membranes of HeLa cells stably expressing TAP-Bcl-xL: IgG agarose, TEV cleavage, calmodulin resin, EGTA elution; most abundant Coomassie bands cut and identified by LC-MS/MS; TAP-stop cells as control

Row | binding | Binder
1 | binds | Hypothetical protein LOC203547 (protein, UniProt Q3ZAQ7-1 1-101) MERPDKAALNALQPPEFRNESSLASTLKTLLFFTALMITVPIGLYFTTKSYIFEGALGMSNRDSYFYAAIVAVVAVHVVLALFVYVAWNEGSRQWREGKQD
2 | binds | Ribophorin I (protein, UniProt P04843 24-607) ASSEAPPLINEDVKRTVDLSSHLAKVTAEVVLAHLGGGSTSRATSFLLALEPELEARLAHLGVQVKGEDEEENNLEVRETKIKGKSGRFFTVKLPVALDPGAKISVIVETVYTHVLHPYPTQITQSEKQFVVFEGNHYFYSPYPTKTQTMRVKLASRNVESYTKLGNPTRSEDLLDYGPFRDVPAYSQDTFKVHYENNSPFLTITSMTRVIEVSHWGNIAVEENVDLKHTGAVLKGPFSRYDYQRQPDSGISSIRSFKTILPAAAQDVYYRDEIGNVSTSHLLILDDSVEMEIRPRFPLFGGWKTHYIVGYNLPSYEYLYNLGDQYALKMRFVDHVFDEQVIDSLTVKIILPEGAKNIEIDSPYEISRAPDELHYTYLDTFGRPVIVAYKKNLVEQHIQDIVVHYTFNKVLMLQEPLLVVAAFYILFFTVIIYVRLDFSITKDPAAEARMKVACITEQVLTLVNKRIGLYRHFDETVNRYKQSRDISTLNSGKKSLETEHKALTSEIALLQSRLKTEGSDLCDRVSEMQKLDAQVKELVLKSAVEAERLVAGKLKKDTYIENEKLISGKRQELVTKIDHILDAL
3 | binds | Manose-P-dolichol utilization defect 1 (protein, UniProt O75352-1 1-247) MAAEADGPLKRLLVPILLPEKCYDQLFVQWDLLHVPCLKILLSKGLGLGIVAGSLLVKLPQVFKILGAKSAEGLSLQSVMLELVALTGTMVYSITNNFPFSSWGEALFLMLQTITICFLVMHYRGQTVKGVAFLACYGLVLLVLLSPLTPLTVVTLLQASNVPAVVVGRLLQAATNYHNGHTGQLSAITVFLLFGGSLARIFTSIQETGDPLMAGTFVVSSLCNGLIAAQLLFYWNAKPPHKQKKAQ
4 | binds | dolichyl-diphosphooligosaccharide-protein glycosyltransferase (protein, UniProt P39656 43-456) SGPRTLVLLDNLNVRETHSLFFRSLKDRGFELTFKTADDPSLSLIKYGEFLYDNLIIFSPSVEDFGGNINVETISAFIDGGGSVLVAASSDIGDPLRELGSECGIEFDEEKTAVIDHHNYDISDLGQHTLIVADTENLLKAPTIVGKSSLNPILFRGVGMVADPDNPLVLDILTGSSTSYSFFPDKPITQYPHAVGKNTLLIAGLQARNNARVIFSGSLDFFSDSFFNSAVQKAAPGSQRYSQTGNYELAVALSRWVFKEEGVLRVGPVSHHRVGETAPPNAYTVTDLVEYSIVIQQLSNGKWVPFDGDDIQLEFVRIDPFVRTFLKKKGGKYSVQFKLPDVYGVFQFKVDYNRLGYTHLYSSTQVSVRPLQHTQYERFIPSAYPYYASAFSMMLGLFIFSIVFLHMKEKEKSD
5 | binds | Voltage-dependent anion channel 2 (protein, UniProt P45880-3 1-294) MATHGQTCARPMCIPPSYADLGKAARDIFNKGFGFGLVKLDVKTKSCSGVEFSTSGSSNTDTGKVTGTLETKYKWCEYGLTFTEKWNTDNTLGTEIAIEDQICQGLKLTFDTTFSPNTGKKSGKIKSSYKRECINLGCDVDFDFAGPAIHGSAVFGYEGWLAGYQMTFDSAKSKLTRNNFAVGYRTGDFQLHTNVNDGTEFGGSIYQKVCEDLDTSVNLAWTSGTNCTRFGIAAKYQLDPTASISAKVNNSSLIGVGYTQTLRPGVKLTLSALVDGKSINAGGHKVGLALELEA
6 | binds | Mesenchymal stem cell protein DSCD75 (protein, UniProt Q8WUY1 18-208) LLDVWYLVRLPCAVLRARLLQPRVRDLLAEQRFPGRVLPSDLDLLLHMNNARYLREADFARVAHLTRCGVLGALRELRAHTVLAASCARHRRSLRLLEPFEVRTRLLGWDDRAFYLEARFVSLRDGFVCALLRFRQHLLGTSPERVVQHLCQRRVEPPELPADLQHWISYNEASSQLLRMESGLSDVTKDQ
7 | binds | transmembrane emp24-like protein 10 (protein, UniProt P49755-1 32-219) ISFHLPINSRKCLREEIHKDLLVTGAYEISDQSGGAGGLRSHLKITDSAGHILYSKEDATKGKFAFTTEDYDMFEVCFESKGTGRIPDQLVILDMKHGVEAKNYEEIAKVEKLKPLEVELRRLEDLSESIVNDFAYMKKREEEMRDTNESTNTRVLYFSIFSMFCLIGLATWQVFYLRRFFKAKKLIE
8 | binds | ATP synthase e subunit (protein, UniProt P56385 1-69) MVPPVQVSPLIKLGRYSALFLGVAYGATRYNYLKPRAEEERRIAAEEKKKQDELKRIARELAEDDSILK
9 | binds | Sideroflexin 1 (protein, UniProt Q9H9B4 1-322) MSGELPPNINIKEPRWDQSTFIGRANHFFTVTDPRNILLTNEQLESARKIVHDYRQGIVPPGLTENELWRAKYIYDSAFHPDTGEKMILIGRMSAQVPMNMTITGCMMTFYRTTPAVLFWQWINQSFNAVVNYTNRSGDAPLTVNELGTAYVSATTGAVATALGLNALTKHVSPLIGRFVPFAAVAAANCINIPLMRQRELKVGIPVTDENGNRLGESANAAKQAITQVVVSRILMAAPGMAIPPFIMNTLEKKAFLKRFPWMSAPIQVGLVGFCLVFATPLCCALFPQKSSMSVTSLEAELQAKIQESHPELRRVYFNKGL
10 | binds | Upregulated during skeletal muscle growth 5 (protein, UniProt Q96IX5 1-58) MAGPESDAQYQFTGIKKYFNSYTLTGRMNCVLATYGSIALIVLYFKLRSKKTPAVKAT
11 | binds | PRA1 domain family, member 2 (protein, UniProt O60831 1-178) MSEVRLPPLRALDDFVLGSARLAAPDPCDPQRWCHRVINNLLYYQTNYLLCFGIGLALAGYVRPLHTLLSALVVAVALGVLVWAAETRAAVRRCRRSHPAACLAAVLAVGLLVLWVAGGACTFLFSIAGPVLLILVHASLRLRNLKNKIENKIESIGLKRTPMGLLLEALGQEQEAGS
12 | binds | Carbamoyl phosphate synthetase 1 (protein, UniProt P31327-1 39-1500) LSVKAQTAHIVLEDGTKMKGYSFGHPSSVAGEVVFNTGLGGYPEAITDPAYKGQILTMANPIIGNGGAPDTTALDELGLSKYLESNGIKVSGLLVLDYSKDYNHWLATKSLGQWLQEEKVPAIYGVDTRMLTKIIRDKGTMLGKIEFEGQPVDFVDPNKQNLIAEVSTKDVKVYGKGNPTKVVAVDCGIKNNVIRLLVKRGAEVHLVPWNHDFTKMEYDGILIAGGPGNPALAEPLIQNVRKILESDRKEPLFGISTGNLITGLAAGAKTYKMSMANRGQNQPVLNITNKQAFITAQNHGYALDNTLPAGWKPLFVNVNDQTNEGIMHESKPFFAVQFHPEVTPGPIDTEYLFDSFFSLIKKGKATTITSVLPKPALVASRVEVSKVLILGSGGLSIGQAGEFDYSGSQAVKAMKEENVKTVLMNPNIASVQTNEVGLKQADTVYFLPITPQFVTEVIKAEQPDGLILGMGGQTALNCGVELFKRGVLKEYGVKVLGTSVESIMATEDRQLFSDKLNEINEKIAPSFAVESIEDALKAADTIGYPVMIRSAYALGGLGSGICPNRETLMDLSTKAFAMTNQILVEKSVTGWKEIEYEVVRDADDNCVTVCNMENVDAMGVHTGDSVVVAPAQTLSNAEFQMLRRTSINVVRHLGIVGECNIQFALHPTSMEYCIIEVNARLSRSSALASKATGYPLAFIAAKIALGIPLPEIKNVVSGKTSACFEPSLDYMVTKIPRWDLDRFHGTSSRIGSSMKSVGEVMAIGRTFEESFQKALRMCHPSIEGFTPRLPMNKEWPSNLDLRKELSEPSSTRIYAIAKAIDDNMSLDEIEKLTYIDKWFLYKMRDILNMEKTLKGLNSESMTEETLKRAKEIGFSDKQISKCLGLTEAQTRELRLKKNIHPWVKQIDTLAAEYPSVTNYLYVTYNGQEHDVNFDDHGMMVLGCGPYHIGSSVEFDWCAVSSIRTLRQLGKKTVVVNCNPETVSTDFDECDKLYFEELSLERILDIYHQEACGGCIISVGGQIPNNLAVPLYKNGVKIMGTSPLQIDRAEDRSIFSAVLDELKVAQAPWKAVNTLNEALEFAKSVDYPCLLRPSYVLSGSAMNVVFSEDEMKKFLEEATRVSQEHPVVLTKFVEGAREVEMDAVGKDGRVISHAISEHVEDAGVHSGDATLMLPTQTISQGAIEKVKDATRKIAKAFAISGPFNVQFLVKGNDVLVIECNLRASRSFPFVSKTLGVDFIDVATKVMIGENVDEKHLPTLDHPIIPADYVAIKAPMFSWPRLRDADPILRCEMASTGEVACFGEGIHTAFLKAMLSTGFKIPQKGILIGIQQSFRPRFLGVAEQLHNEGFKLFATEATSDWLNANNVPATPVAWPSQEGQNPSLSSIRKLIRDGSIDLVINLPNNNTKFVHDNYVIRRTAVDSGIPLLTNFQVTKLFAEAVQKSRKVDSKSLFHYRQYSAGKAA
13 | binds | Transmembrane emp24 protein transport domain containing 5 (protein, UniProt Q9Y3A6-1 28-229) FTPSLDSDFTFTLPAGQKECFYQPMPLKASLEIEYQVLDGAGLDIDFHLASPEGKTLVFEQRKSDGVHTVETEVGDYMFCFDNTFSTISEKVIFFELILDNMGEQAQEQEDWKKYITGTDILDMKLEDILESINSIKSRLSKSGHIQTLLRAFEARDRNIQESNFDRVNFWSMVNLVVMVVVSAIQVYMLKSLFEDKRKSRT
14 | binds | KDEL endoplasmic reticulum protein retention receptor 1 (protein, UniProt P24390-1 1-212) MNLFRFLGDLSHLLAIILLLLKIWKSRSCAGISGKSQVLFAVVFTARYLDLFTNYISLYNTCMKVVYIACSFTTVWLIYSKFKATYDGNHDTFRVEFLVVPTAILAFLVNHDFTPLEILWTFSIYLESVAILPQLFMVSKTGEAETITSHYLFALGVYRTLYLFNWIWRYHFEGFFDLIAIVAGLVQTVLYCDFFYLYITKVLKGKKLSLPA
15 | binds | ATP synthase f subunit (protein, UniProt P56134-2 1-88) MASVVPVKDKKLLEVKLGELPSWILMRDFSPSGIFGAFQRGYYRYYNKYINVKKGSISGITMVLACYVLFSYSFSYKHLKHERLRKYH
16 | binds | stomatin (EPB72)-like 2 (protein, UniProt Q9UJZ1-1 29-356) SSGLPRNTVVLFVPQQEAWVVERMGRFHRILEPGLNILIPVLDRIRYVQSLKEIVINVPEQSAVTLDNVTLQIDGVLYLRIMDPYKASYGVEDPEYAVTQLAQTTMRSELGKLSLDKVFRERESLNASIVDAINQAADCWGIRCLRYEIKDIHVPPRVKESMQMQVEAERRKRATVLESEGTRESAINVAEGKKQAQILASEAEKAEQINQAAGEASAVLAKAKAKAEAIRILAAALTQHNGDAAASLTVAEQYVSAFSKLAKDSNTILLPSNPGDVTSMVAQAMGVYGALTKAPVPGTPDSLSSGSSRDVQGTDASLDEELDRVKMS
17 | binds | ER-Golgi intermediate compartment 1 (protein, UniProt Q969X5-1 1-290) MPFDFRRFDIYRKVPKDLTQPTYTGAIISICCCLFILFLFLSELTGFITTEVVNELYVDDPDKDSGGKIDVSLNISLPNLHCELVGLDIQDEMGRHEVGHIDNSMKIPLNNGAGCRFEGQFSINKVPGNFHVSTHSATAQPQNPDMTHVIHKLSFGDTLQVQNIHGAFNALGGADRLTSNPLASHDYILKIVPTVYEDKSGKQRYSYQYTVANKEYVAYSHTGRIIPAIWFRYDLSPITVKYTERRQPLYRFITTICAIIGGTFTVAGILDSCIFTASEAWKKIQLGKMH

Results are given in words; binding and its absence hold for the method and conditions named. In cells and extracts the contact can be indirect. A yes stands for co-enrichment or nearness to the bait. Other partners may have been found. Tags and fused reporters may be left off the sequences shown.
